# Reference: patent publication US6066621A, “Synthetic peptides for the treatment of myasthenia gravis” (Yeda Research and Development Co. Ltd., priority 1995, dated 2000)
# Read-outs that look alike come from different tables or passages of the source. At least one peptide structure holds a part that was inferred or is arguable (an end, a ring closure or a residue). Where no end group is shown, it is not given here.
# Legend:
# [1] = tested on: peripheral blood lymphocytes (PBL) from MG patients; conditions: Brocke et al. (1988); cited from earlier work
# [2] = tested on: peripheral blood lymphocytes (PBL) of myasthenia gravis patients; assay: PBL proliferative response of myasthenia gravis patients to p195-212 and analog; type: cell-based, human
# [3] = tested on: T cell line TCBALB/c259-271
# T cell line TCSJL195-212 [4] = tested on: T cell line TCSJL195-212
# [5] = tested on: lymph node cells of p195-212 immunized SJL mice; assay: In vivo inhibition of priming of lymph node cells of p195-212 immunized SJL mice; conditions: for inhibition of in vivo priming of lymph node cells to p195-212: mouse
# [6] = tested on: peripheral blood lymphocytes (PBL) of myasthenia gravis patients; conditions: for % Inhibition Mean ± SD / % Inhibition Range: stimulation of PBL of MG patients in the presence of p195-212
# [7] = tested on: T cell line TCBALB/c259-271; assay: Proliferative response of T cell line TCBALB/c259-271 to peptides (3H-thymidine incorporation); type: cell-based, BALB/c mice
# T cell line TCSJL195-212 [8] = assay: Proliferative response of T cell line TCSJL195-212 to peptides; type: cell-based, SJL mouse
# [9] = tested on: lymph node cells of p259-271 immunized BALB/c mice; assay: In vivo inhibition of priming of lymph node cells of p259-271 immunized BALB/c mice; conditions: for inhibition of in vivo priming of lymph node cells to p259-271: mouse
# [10] = tested on: peripheral blood lymphocytes (PBL) of myasthenia gravis patients; assay: Inhibition of p259-271 specific proliferative response of PBL of MG patients; type: cell-based, human; conditions: for % Inhibition Mean ± SD / % Inhibition Range: stimulation of PBL of MG patients in the presence of p259-271
# [11] = tested on: TCBALB/c259-271 T cell line with p259-271 specific B cells; assay: Inhibition of T cell helper activity (anti-p259-271 antibody production); type: cell-based, BALB/c mice; conditions: 20 μg analog with p259-271 0.001-5 μg/well; up to
# [12] = tested on: BALB/c mice injected with cells of the p259-271 specific line; assay: Prevention of induction of experimental MG by T cell line (CMAP decrement); type: in vivo; conditions: T cell line concomitant with 200 μg analog; 5 of 10 with the T cell line alone
# [13] = tested on: T cells specific to the myasthenogenic peptide p259-271; assay: Table 1 activity of analogs of p259-271 on specific T cells (stimulation / inhibition); type: cell-based, mouse; parameters: key: Stimulatory: analogs that stimulated T cells; Inhibitory: analogs that could not induce stimulation but could inhibit the stimulating activity of the myasthenogenic peptides; No effect: analogs that neither stimulated nor inhibited T cells specific to the myasthenogenic peptides
# [14] = tested on: lymph node cells of p259-271 immunized BALB/c mice; assay: Proliferative response of lymph node cells of p259-271 immunized BALB/c mice to peptides; type: cell-based
# [15] = tested on: TCBALB/c259-271 T cell line with p259-271 specific B cells; assay: In vitro antibody production assay (helper activity of TCBALB/c259-271 line); type: cell-based, BALB/c mice; conditions: 0.001-5 μg/well peptide
# MHC class II of SJL mice = target: T1, MHC class II of SJL mice (Mus musculus, UniProt P06345+P14437); assay: Direct binding of biotinylated peptides to MHC class II on antigen-presenting cells of SJL mice
# T1 construct: MHC class II on murine and human antigen presenting cells; endogenous in cells; host or cells: antigen-presenting cells of SJL mice (the method cites murine splenic adherent cells)
# T1 sequence (P14437 1-233): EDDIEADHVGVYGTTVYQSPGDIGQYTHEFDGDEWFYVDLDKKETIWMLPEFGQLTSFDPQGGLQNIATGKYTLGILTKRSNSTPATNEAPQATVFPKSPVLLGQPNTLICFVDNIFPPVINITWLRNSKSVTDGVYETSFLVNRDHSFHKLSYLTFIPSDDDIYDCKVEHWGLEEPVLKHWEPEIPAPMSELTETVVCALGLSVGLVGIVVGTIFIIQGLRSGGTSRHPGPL
# T1 sequence (P06345 28-263): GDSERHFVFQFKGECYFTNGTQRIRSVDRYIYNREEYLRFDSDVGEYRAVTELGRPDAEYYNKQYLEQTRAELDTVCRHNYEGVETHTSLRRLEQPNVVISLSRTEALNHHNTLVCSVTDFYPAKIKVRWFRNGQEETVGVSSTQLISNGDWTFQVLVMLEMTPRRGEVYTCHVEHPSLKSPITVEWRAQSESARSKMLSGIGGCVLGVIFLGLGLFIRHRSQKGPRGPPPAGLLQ
# TCBALB/c259-271 line = assay: Inhibition of non-specific proliferative response of TCBALB/c259-271 line to Con-A sup; type: cell-based, BALB/c mice
Compound,inhibition of the p259-271 specific proliferative response [3],inhibition of in vivo priming of lymph node cells to p195-212 [5],Inhibitory activity: percent of responder MG patients whose PBL response to p195-212 was inhibited [6] [%],Inhibitory activity: responder MG patients inhibited / tested (response to p195-212) [6],% Inhibition Mean ± SD [6] [%],% Inhibition Range [6],stimulation of proliferation of the p259-271 specific T cell line [7],stimulation of proliferation of the p195-212 specific T cell line (T cell line TCSJL195-212 [8]),inhibition of in vivo priming of lymph node cells to p259-271 [9],Inhibitory activity: percent of responder MG patients whose PBL response to p259-271 was inhibited [10] [%],Inhibitory activity: responder MG patients inhibited / tested (response to p259-271) [10],% Inhibition Mean ± SD [10] [%],% Inhibition Range [10],further results
"CC[C@H](C)[C@H](NC(=O)[C@H](CC(=O)O)NC(=O)[C@H](CC(C)C)NC(=O)[C@H](Cc1ccc(O)cc1)NC(=O)[C@@H]1CCCN1C(=O)[C@@H](NC(=O)[C@@H](N)CC(=O)O)[C@@H](C)O)C(=O)N[C@H](C(=O)N[C@@H](Cc1ccc(O)cc1)C(=O)N[C@@H](Cc1c[nH]cn1)C(=O)N[C@@H](Cc1ccccc1)C(=O)N[C@H](C(=O)N[C@@H](CCSC)C(=O)N[C@@H](CCC(N)=O)C(=O)N[C@@H](CCCNC(=N)N)C(=O)N[C@@H](CC(C)C)C(=O)N1CCC[C@H]1C(=O)N[C@@H](CC(C)C)C(=O)O)C(C)C)[C@@H](C)O [p195-212, Asp-Thr-Pro-Tyr-Leu-Asp-Ile-Thr-Tyr-His-Phe-Val-Met-Gln-Arg-Leu-Pro-Leu]",competitively inhibit,–,–,–,–,–,–,–,–,–,–,–,–,"percent of MG patients who expressed HLA-DR5 that responded to the peptide [1]: 83%; percent of MG patients whose PBL responded to the peptide ([2]; 40 MG patients tested): 63%; number of MG patients whose PBL responded to the peptide ([2]; out of 40 MG patients tested): 25; p195-212 SI (stimulation index = response/background) ([2]; patient four, 25 μg/well): 3.6; p195-212 SI (stimulation index = response/background) ([2]; patient one, 50 μg/well): 6.3; p195-212 SI (stimulation index = response/background) ([2]; patient two, 25 μg/well): 4.3"
DTPYLDITYHFVAQRLPLVIVKLIPSTSSAV [207Ala-262Lys],inhibited significantly,capable of inhibiting,95,21 out of 22,89.9 ± 18.9,40-100%,Neither of the dual epitope analogs stimulated,Neither of the dual epitope analogs stimulated,capable of inhibiting,94,14 out of 16,84.6 ± 21.3,36-100%,inhibition of the p195-212 specific proliferative response (T cell line TCSJL195-212 [4]): inhibited significantly; Inhibitory activity: responder MG patients inhibited / tested (response to p195-212) ([6]; listed as 207 Ala-262 Lys): 21/22; Inhibitory activity: responder MG patients inhibited / tested (response to p259-271) ([10]; listed as 207 Ala-262 Lys): 16/17
VIVKLIPSTSSAV [262Lys],–,–,–,–,–,–,did not stimulate,–,–,95,19,91.8 ± 15.8,39-100%,"inhibition of p259-271 specific antibody production [11]: up to 80%; mice in which a CMAP decrement could be detected [12]: 1 of the 10; Activity [13]: Inhibitory; stimulation of lymph node cell proliferation [14]: did not stimulate; Inhibitory activity: responder MG patients inhibited / tested (response to p259-271) ([10]; listed as 262 Lys): 19/20; % Inhibition (I:S) ([10]; patient one, I:S 1:1): 100%; % Inhibition (I:S) ([10]; patient three, ratio not given): 0%; % Inhibition (I:S) ([10]; patient two, I:S 1:1): 71.6%; helper activity: anti-p259-271 antibody production in presence of peptide [15]: no antibody activity could be detected"
VIVKLIPSTSSAVDTPYLDITYHFVAQRLPL [262Lys-207Ala],–,capable of inhibiting,95,21 out of 22,97.6 ± 5.7,79-100%,Neither of the dual epitope analogs stimulated,Neither of the dual epitope analogs stimulated,capable of inhibiting,88,14 out of 16,90.1 ± 21.4,23-100%,"pattern of binding compared with p195-212 (MHC class II of SJL mice): more homogeneous; affinity of binding to MHC class II, fold higher than that of 207Ala-262Lys (MHC class II of SJL mice; SJL mice, calculated): 10 fold; inhibition of lymph node cell proliferation to p195-212 ([5]; 200 μg in PBS i.p.): completely inhibited; inhibition of lymph node cell proliferation to p195-212 ([5]; 200 μg in PBS i.v.): completely inhibited; inhibition of lymph node cell proliferation to p195-212 ([5]; fed 500 μg/mouse (oral)): completely inhibited; inhibition of lymph node cell proliferation to p195-212 ([5]; fed with 250 μl (group described as 205 μg/mouse)): dramatic inhibition; Inhibitory activity: responder MG patients inhibited / tested (response to p195-212) ([6]; listed as 262 Lys-207 Ala): 21/22; inhibition of proliferative response to p259-271: per os route compared with i.v. injection ([9]; fed 500 μg/mouse vs i.v. 200 μg/mouse): at least as effective; Inhibitory activity: responder MG patients inhibited / tested (response to p259-271) ([10]; listed as 262 Lys-207 Ala): 15/17; inhibition of non-specific proliferative response to Con-A sup (TCBALB/c259-271 line): did not inhibit"
